Source: article PMC7863940

Target: T1, glucose transporter-4 (Glut4) (mouse (endogenous in 3T3L1)) (UniProt P14142)
T1 sequence: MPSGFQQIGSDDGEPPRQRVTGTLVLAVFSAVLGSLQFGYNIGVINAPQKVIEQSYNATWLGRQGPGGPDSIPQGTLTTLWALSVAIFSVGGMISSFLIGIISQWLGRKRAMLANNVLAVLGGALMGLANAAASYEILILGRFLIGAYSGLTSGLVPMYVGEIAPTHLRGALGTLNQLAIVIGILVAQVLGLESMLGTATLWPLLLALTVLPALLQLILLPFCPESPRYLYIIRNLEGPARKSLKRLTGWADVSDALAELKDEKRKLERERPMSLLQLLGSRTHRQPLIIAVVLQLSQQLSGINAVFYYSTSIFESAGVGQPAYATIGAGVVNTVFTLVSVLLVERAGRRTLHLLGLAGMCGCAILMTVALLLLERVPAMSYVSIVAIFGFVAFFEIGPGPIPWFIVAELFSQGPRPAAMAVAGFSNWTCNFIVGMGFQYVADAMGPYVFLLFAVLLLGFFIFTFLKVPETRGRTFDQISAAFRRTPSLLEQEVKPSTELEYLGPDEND
Experiment: co-IP; 200 µL of 1 µg/µL 3T3-L1 lysate, precleared with Protein A/G agarose, rocked with 2 µg Glut4-agarose antibody overnight at 4 °C; western blot for sortilin and Glut4; control cells and cells over-expressing Sort^17b (48 h)

- binding: binds
Substance: sortilin variant with included exon 17b (Sort^17b) (mouse)

No constants are given. Whether binding was seen depends on the method and setting. Binding seen in cells or lysates may run through a third protein. A result given as binding can be weak or reduced; the word gives no strength. Where a sequence is shown, tags or fusion partners need not be part of it.
